Test results: the supplement of paper PMC3682954
Counter-ions that a name gives are not always drawn. ± gives the standard deviation of the averaged measurements. This is one part of the list. Most values come without repeats; read them as rough.

System: RAW 264.7
Experiment: HMGB1-induced TNF-alpha production relative to HMGB1-stimulated control; higher = more TNF-alpha secretion (less inhibition)
Conditions: stimulus: HMGB1 5 ug/ml, 18 h
[1] = compound concentration: 1 ug/ml

| Compound | HMGB1-induced TNF-alpha production (compound concentration: 3 uM) | HMGB1-induced TNF-alpha production [1] |
| --- | --- | --- |
| COc1ccc2c(c1)[C@]13CCCC[C@@H]1[C@H](C2)N(C)CC3 [d-3-Methoxy-N-methylmorphinan hydrobromide] | 83.6% |  |
| COc1ccc2c(c1)[C@]13CCCC[C@@H]1[C@H](C2)N(C)CC3 [Dextromethorphan hydrobromide monohydrate] | 72.6 ± 13% |  |
| COc1ccc2c(c1)[C@]13CCCC[C@@H]1[C@H](C2)N(C)CC3 | 85.7% |  |
| Cc1ccc(S(=O)(=O)N2CC3CC(C2)c2cccc(=O)n2C3)cc1 (stereo not given) |  | 71.1% |
| Oc1ccc(CC2NCCc3cc(O)c(O)cc32)cc1O (stereo not given) [Tetrahydropapaveroline hydrobromide] |  | 51.2% |
| O=C1C=CC(=O)c2c(O)cccc21 | 78.5% |  |
| Oc1cc2c(cc1O)[C@H]1c3ccccc3CN[C@@H]1CC2 | 112% |  |
| Clc1cnc(Oc2ccc(Oc3ncc(Cl)cc3Cl)cc2)c(Cl)c1 | 125% |  |
| CNCCc1ccc(O)c(O)c1 [N-Methyldopamine hydrochloride] | 58.9% |  |
| CC(Cc1ccc(O)cc1)NCC(O)c1cc(O)cc(O)c1 (stereo not given) [Fenoterol hydrobromide] | 42.8 ± 17% |  |
| CC(Cc1ccc(O)cc1)NCC(O)c1cc(O)cc(O)c1 (stereo not given) | 60.9% |  |
| C=C1[C@@H]2CC[C@H]3[C@]4(C)C[C@H](O[C@@H]5O[C@H](CO)[C@@H](OS(=O)(=O)O)[C@H](OS(=O)(=O)O)[C@H]5OC(=O)CC(C)C)C[C@@H](C(=O)O)[C@H]4CC[C@]3(C2)[C@@H]1O [Atractyloside potassium salt] | 103% |  |
| C=C[C@H]1CN2CC[C@H]1C[C@@H]2[C@@H](O)c1ccnc2ccccc12 [(+)-Cinchonine] |  | 47.3% |
| C=C[C@H]1CN2CC[C@H]1C[C@@H]2[C@@H](O)c1ccnc2ccccc12 | 97.9% |  |
| Cn1cnc(CCN)c1 [1-Methylhistamine dihydrochloride] | 112% | 89.4% |
| C1CCc2nnnn2CC1 | 97.4% |  |
| C1CCc2nnnn2CC1 [Pentylenetetrazole] | 115 ± 4.2% |  |
| OC[C@@H]1CCCN2CCCC[C@H]12 [Lupinine] |  | 67.7% |
| COC1=CC2C3Cc4ccc(OC)c(O)c4C2(CCN3C)CC1=O (stereo not given) |  | 58.1% |
| C=CC[C@]1(O)CC[C@H]2[C@@H]3CCC4=CC(=O)CCC4=C3C=C[C@@]21C | 84.8% |  |
| CCCN1CCC[C@@H]2Cc3nc(N)ncc3C[C@H]21 [Quinelorane dihydrochloride] | 98.7% |  |
| C[C@]12CC[C@@H](O)C[C@@H]1CC[C@@H]1[C@@H]2CC[C@]2(C)C(=O)CC[C@@H]12 [Androsterone] | 74% |  |

3 entries from above in a different format:
Compound | HMGB1-induced TNF-alpha production (compound concentration: 3 uM) | HMGB1-induced TNF-alpha production [1]
O=C1C=CC(=O)c2c(O)cccc21 | 78.5% | 
Oc1cc2c(cc1O)[C@H]1c3ccccc3CN[C@@H]1CC2 | 112% | 
Clc1cnc(Oc2ccc(Oc3ncc(Cl)cc3Cl)cc2)c(Cl)c1 | 125% | 

More records follow:

| Compound | HMGB1-induced TNF-alpha production (compound concentration: 3 uM) | HMGB1-induced TNF-alpha production [1] |
| --- | --- | --- |
| CC1=CC(=O)C2=C(C)C[C@H](O)[C@@H]3[C@H](OC(=O)[C@H]3C)[C@H]12 [Austricine] |  | 79.2% |
| CNCC(O)c1ccc(O)cc1 (racemic) [(±)-Synephrine] | 98.8% |  |
| CNCC(O)c1ccc(O)cc1 (racemic) [(+,-)-Synephrine] | 116% |  |
| CN(N=O)c1ccc(O)c(O)c1 [Me-3,4-dephostatin] | 105% |  |
| CC1=CC(=O)c2c(O)cccc2C1=O [Plumbagin] |  | 57.2% |
| CC(Cc1ccc(OCC(=O)O)cc1)NCC(O)c1cccc(Cl)c1 (stereo not given) | 60% |  |
| OC1CCCCC1N1CCC(c2ccccc2)CC1 (stereo not given) | 87.7% |  |
| NC(=O)c1ccc(N)nc1 | 94.6% |  |
| N[C@@H](Cc1ccc(N(CCCl)CCCl)cc1)C(=O)O [Melphalan] | 94.6 ± 11% |  |
| N[C@@H](Cc1ccc(N(CCCl)CCCl)cc1)C(=O)O | 88.5 ± 5.1% |  |
| CC(C)=CCOc1c2occc2cc2ccc(=O)oc12 [Imperatorin] | 84.1% |  |
| C=CCN1C[C@H](C)N([C@H](c2ccc(C(=O)N(CC)CC)cc2)c2cccc(OC)c2)C[C@H]1C | 107% |  |
| O=[N+]([O-])O[C@@H]1CO[C@H]2[C@@H]1OC[C@@H]2O [Isosorbide mononitrate] | 126% |  |
| O=[N+]([O-])O[C@@H]1CO[C@H]2[C@@H]1OC[C@@H]2O | 85.8% |  |
| C[C@H](N)[C@H](O)c1ccc(O)c(O)c1 [Levonordefrin] | 44.5% |  |
| C[C@H](N)[C@H](O)c1ccc(O)c(O)c1 | 66.2% |  |
| N=C(N)NN [Aminoguanidine hydrochloride] | 88.9% |  |
| N=C(N)NN [Aminoguanidine hemisulfate] | 91.5% |  |
| CC[C@@]1(O)C[C@H](O[C@H]2C[C@H](N(C)C)[C@H](O)[C@H](C)O2)c2c(cc3c(c2O)C(=O)c2c(O)cccc2C3=O)[C@H]1C(=O)OC | 12.7% |  |
| CC(C)N(CCC(C(N)=O)(c1ccccc1)c1ccccn1)C(C)C (stereo not given) | 89.8% |  |
| CC(C)N(CCC(C(N)=O)(c1ccccc1)c1ccccn1)C(C)C (stereo not given) [Disopyramide] | 84.1 ± 13% |  |
| CC(C)N(CCC(C(N)=O)(c1ccccc1)c1ccccn1)C(C)C (stereo not given) [Disopyramide phosphate] | 78% |  |
